# Values from PubChem BioAssay AID1259308 (NCATS, 2017).
# Aim: 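Knock-downs that increase output of a recombinant reporter protein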 (primary screen)
# Cell system: human HEK293 embryonic kidney cells stably expressing firefly luciferase (HEK-CMV-Luc2-Hygro)
# Reagent: single siRNA against human genes, 0.8 pmol siRNA per well
# Duration: 72 h
# Detection: 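Luciferase light (ONE-Glo) measured on one replicate plate set and viability (CellTiter-Glo) on the other, scaled to a negative control siRNA, with robust z-scores and luciferase per cell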
# Reading the numbers: total luciferase, z-score and total luciferase, % of control: higher = more reporter protein produced; luciferase per cell, z-score: higher = more reporter output per viable cell
# Hit rule: 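Active when the median/MAD z-score for overall luciferase is greater than 3; a gene was taken forward for validation with new siRNAs if at least two of its three siRNAs passed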
# Meaning of the calls: active = raised luciferase; inactive = no rise
# Here is an unselected part of about 59,000 deposited reagents. In the full data, about 1,510 (2.6%) were called active. 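Calls use total luciferase alone and ignore viability, so some active siRNAs may act by altering cell number.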 Entries without a mark were called inactive. Reagents against one gene are numbered here. Further read-outs or replicates are left out here.
target gene,reagent no.,"total luciferase, z-score","total luciferase, % of control","luciferase per cell, z-score"
PHF21A,1,1.52,112,1.32
PHF21A,2,0.792,97.6,0.0723
PHF21A,3,0.918,100,1.25
TDRKH,1,2.19,125,0.989
TDRKH,2,-1.43,53.4,-1.31
TDRKH,3,0.645,94.7,0.359
CHCHD2P10,1,4.5 (active),171,3.37
CHCHD2P10,2,2.09,123,1.94
CHCHD2P10,3,-0.0426,81,-0.331
SLC35E1,1,-1.07,60.5,-1.33
SLC35E1,2,0.224,86.3,0.028
SLC35E1,3,1.89,119,1.27
NCSTN,1,-0.0634,80.6,1.33
NCSTN,2,0.208,86,0.455
NCSTN,3,-0.843,65.1,-1.04
UQCRH,1,-0.537,71.2,-1.32
UQCRH,2,-0.226,77.4,-0.418
UQCRH,3,0.145,84.8,-0.656
KRT38,1,-2.78,26.6,-3.05
KRT38,2,0.57,93.2,0.44
KRT38,3,-1.5,52.1,-1.25
MYH14,1,0.288,87.6,0.061
MYH14,2,0.0799,83.5,0.0357
MYH14,3,-2.98,22.7,-1.37
TMEM63C,1,0.215,86.2,-0.016
TMEM63C,2,-0.283,76.3,-0.911
TMEM63C,3,0.921,100,1.55
CRYZL1,1,0.206,86,-0.302
CRYZL1,2,2.15,125,3.1
CRYZL1,3,2.44,130,1.37
VAMP5,1,-0.551,70.9,-0.418
VAMP5,2,0.12,84.3,0.313
VAMP5,3,1.67,115,0.643
RERG,1,-0.802,65.9,-1.14
RERG,2,-0.454,72.9,-0.0361
RERG,3,-0.429,73.3,-0.509
GFI1B,1,0.567,93.2,0.822
GFI1B,2,-1.15,59,-1.14
GFI1B,3,-1.3,55.9,-0.975
ACOT2,1,0.238,86.6,0.672
ACOT2,2,-0.00406,81.8,-0.732
ACOT2,3,1.68,115,0.999
FAM43B,1,-0.28,76.3,-0.137
FAM43B,2,-2.37,34.8,-1.19
FAM43B,3,0.293,87.7,-0.104
C10orf67,1,1.27,107,0.463
C10orf67,2,3.29 (active),147,1.68
C10orf67,3,0.187,85.6,0.0764
C10orf67,4,0.772,97.2,0.692
C10orf67,5,-1.72,47.6,-1.79
C10orf67,6,0.305,87.9,-0.0721
TDRP,1,-0.0198,81.5,0.169
TDRP,2,1.08,103,0.651
TDRP,3,1.14,105,3.51
PXT1,1,-0.688,68.2,-0.655
PXT1,2,1.52,112,0.803
PXT1,3,-2.44,33.5,-2.37

In a second layout: 4 of the entries above
| target gene | reagent no. | total luciferase, z-score | total luciferase, % of control | luciferase per cell, z-score |
| --- | --- | --- | --- | --- |
| C10orf67 | 6 | 0.305 | 87.9 | -0.0721 |
| TDRP | 1 | -0.0198 | 81.5 | 0.169 |
| TDRP | 2 | 1.08 | 103 | 0.651 |
| TDRP | 3 | 1.14 | 105 | 3.51 |
